Reference: PubChem BioAssay AID743454 (Peter MacCallum Cancer Centre, 2014)
Test: 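Search for knock-downs that restore vorinostat killing in resistant colon cancer cells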 (primary screen). Cell system: human HCT116-VR colon cancer cells, selected for vorinostat resistance. Reagents: siRNA pool against human genes, 40 nM siRNA pool. Duration: vorinostat for 24 h, read-out about 72 h after transfection. Treatment: vorinostat at 2.5 µM final. Measured: 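Two measures, CellTiter-Fluor viability and luminescent caspase 3/7 activity, each as fold change against same-plate mock wells, mean of duplicates, then screen-wide robust z-score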. Direction: viability robust z-score: higher = more viable cells than screen typical; caspase robust z-score: higher = more caspase 3/7 activity than screen typical. Rule for the call: 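Hits are knock-downs in viability class RV1/RV2 or caspase class CA1/CA2, excluding ones that killed cells in the no-drug cell-count arm; hits then retested with single siRNAs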.
The whole screen tested about 18,000 reagents; this is an unselected part. Over the whole deposit, 450 (2.5%) got an active call. 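Single biological run; no consistent viability z cut-off exists, so the class columns, not z-scores, define the calls.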 Reagent sequences are not shown.

gene	PubChem SID	viability hit class	caspase hit class	viability robust z-score	caspase robust z-score	activity call
CCL18 (C-C motif chemokine ligand 18)	SID134312769	no change	no change	0.96	0.46	inactive
FER (FER tyrosine kinase)	SID152156672	no change	no change	2.12	-0.53	inactive
NAGPA	SID152155244	no change	no change	-0.48	0.34	inactive
PNMA8A (PNMA family member 8A)	SID152152436	no change	no change	0.31	0.24	inactive
PLCL2 (phospholipase C like 2)	SID152150810	no change	no change	0.98	1.17	inactive
PIK3C3 (phosphatidylinositol 3-kinase catalytic subunit type 3)	SID134310831	no change	no change	0.36	2.59	inactive
RNF123 (ring finger protein 123)	SID134312164	no change	no change	-0.07	0.74	inactive
POLR3H (RNA polymerase III subunit H)	SID135622956	no change	no change	-1.47	-0.34	inactive
LRATD1 (LRAT domain containing 1)	SID134319944	no change	no change	1.73	-0.06	inactive
PSORS1C1 (psoriasis susceptibility 1 candidate 1)	SID134324391	no change	no change	0.06	1.32	inactive
CDKN3 (cyclin dependent kinase inhibitor 3)	SID135620749	no change	no change	-0.65	0.85	inactive
VAV2 (vav guanine nucleotide exchange factor 2)	SID135620953	no change	no change	0.61	-0.02	inactive
EPHB4 (EPH receptor B4)	SID152156322	no change	no change	-0.74	2.83	inactive
PRELID1 (PRELI domain containing 1)	SID135623369	no change	no change	0.32	0.43	inactive
UBE3D (ubiquitin protein ligase E3D)	SID134326198	no change	no change	-0.37	-0.57	inactive
GYPC (glycophorin C (Gerbich blood group))	SID134316002	no change	no change	-0.73	-0.84	inactive
ZMYM1 (zinc finger MYM-type containing 1)	SID152150451	no change	no change	-0.34	0.05	inactive
GRIPAP1 (GRIP1 associated protein 1)	SID152153080	no change	no change	0.88	-1.15	inactive
TSPO (translocator protein)	SID135621800	no change	no change	0.12	1.65	inactive
PRKN (parkin RBR E3 ubiquitin protein ligase)	SID134309959	no change	no change	1.05	4.26	inactive
SANBR (SANT and BTB domain regulator of CSR)	SID134325485	no change	no change	1.14	-0.22	inactive
CTU2 (cytosolic thiouridylase subunit 2)	SID152154413	no change	no change	-0.93	1.49	inactive
SYMPK (symplekin scaffold protein)	SID135623857	no change	no change	-0.82	1.04	inactive
XKR8 (XK related 8)	SID135623009	no change	no change	-0.08	2.08	inactive
GPR52 (G protein-coupled receptor 52)	SID135621028	no change	no change	1.15	-0.2	inactive
SCUBE3 (signal peptide, CUB domain and EGF like domain containing 3)	SID135623515	no change	no change	-0.43	0.44	inactive
C16orf90 (chromosome 16 open reading frame 90)	SID135625507	no change	no change	0.83	-0.44	inactive
FCGRT (Fc gamma receptor and transporter)	SID134321807	no change	no change	0.82	1.02	inactive
ZBTB33 (zinc finger and BTB domain containing 33)	SID135623889	no change	no change	-1.27	1.32	inactive
OR10Q1 (olfactory receptor family 10 subfamily Q member 1)	SID135624589	no change	no change	0.02	-0.81	inactive

12 of these entries in another layout.
gene | PubChem SID | viability hit class | caspase hit class | viability robust z-score | caspase robust z-score | activity call
NAGPA | SID152155244 | no change | no change | -0.48 | 0.34 | inactive
PNMA8A (PNMA family member 8A) | SID152152436 | no change | no change | 0.31 | 0.24 | inactive
PLCL2 (phospholipase C like 2) | SID152150810 | no change | no change | 0.98 | 1.17 | inactive
PIK3C3 (phosphatidylinositol 3-kinase catalytic subunit type 3) | SID134310831 | no change | no change | 0.36 | 2.59 | inactive
RNF123 (ring finger protein 123) | SID134312164 | no change | no change | -0.07 | 0.74 | inactive
POLR3H (RNA polymerase III subunit H) | SID135622956 | no change | no change | -1.47 | -0.34 | inactive
LRATD1 (LRAT domain containing 1) | SID134319944 | no change | no change | 1.73 | -0.06 | inactive
PSORS1C1 (psoriasis susceptibility 1 candidate 1) | SID134324391 | no change | no change | 0.06 | 1.32 | inactive
CDKN3 (cyclin dependent kinase inhibitor 3) | SID135620749 | no change | no change | -0.65 | 0.85 | inactive
VAV2 (vav guanine nucleotide exchange factor 2) | SID135620953 | no change | no change | 0.61 | -0.02 | inactive
EPHB4 (EPH receptor B4) | SID152156322 | no change | no change | -0.74 | 2.83 | inactive
PRELID1 (PRELI domain containing 1) | SID135623369 | no change | no change | 0.32 | 0.43 | inactive

Next records follow:
gene	PubChem SID	viability hit class	caspase hit class	viability robust z-score	caspase robust z-score	activity call
USP6NL (USP6 N-terminal like)	SID152156506	no change	no change	1.32	0.32	inactive
GJC1 (gap junction protein gamma 1)	SID152153259	no change	no change	2.29	0.64	inactive
TIA1 (TIA1 cytotoxic granule associated RNA binding protein)	SID135622444	no change	no change	0.43	-1.13	inactive
CARD17P (caspase recruitment domain family member 17, pseudogene)	SID135625306	no change	no change	1.02	1.85	inactive
RRAS (RAS related)	SID152149086	no change	no change	-0.36	1.61	inactive
AAAS (aladin WD repeat nucleoporin)	SID152156584	no change	no change	-0.24	0.54	inactive
PRSS53 (serine protease 53)	SID135625435	no change	no change	0.42	2.43	inactive
RPP38 (ribonuclease P/MRP subunit p38)	SID152147376	no change	no change	0.09	0.5	inactive
SERPINA11 (serpin family A member 11)	SID135624266	no change	no change	0.71	-0.11	inactive
STAP2 (signal transducing adaptor family member 2)	SID152152277	no change	no change	-0.36	1	inactive
TRIM49B (tripartite motif containing 49B)	SID152150058	no change	CA1 (caspase activation)	-0.57	9.75	active
VSIG2 (V-set and immunoglobulin domain containing 2)	SID134320614	no change	no change	-0.24	1.01	inactive
SLC52A2	SID152152348	no change	no change	0.36	0.96	inactive
NSMCE4A (NSE4A component of SMC5/6 complex)	SID134324249	no change	no change	0.04	1.88	inactive
ALOXE3 (arachidonate epidermal lipoxygenase 3)	SID135621696	no change	no change	-0.77	1.66	inactive
TIMM13 (translocase of inner mitochondrial membrane 13)	SID135621796	no change	no change	-2.8	1.34	inactive
POGLUT2 (protein O-glucosyltransferase 2)	SID134318462	no change	no change	0.2	0.84	inactive
GINS3 (GINS complex subunit 3)	SID134320229	no change	no change	-0.58	-0.89	inactive
ENPEP (glutamyl aminopeptidase)	SID152154646	no change	no change	0.5	-0.5	inactive
NBPF14 (NBPF member 14)	SID134323947	no change	no change	-0.5	-0.88	inactive
NUP98 (nucleoporin 98 and 96 precursor)	SID152147776	no change	no change	-4.21	1.09	inactive
CD1B (CD1b molecule)	SID152149184	RV2 (reduced viability)	no change	-2.94	-0.56	active
SMIM8 (small integral membrane protein 8)	SID152151979	no change	no change	0	0.24	inactive
COL7A1 (collagen type VII alpha 1 chain)	SID152151484	no change	no change	1.29	-0.02	inactive
TRIM45 (tripartite motif containing 45)	SID135621307	no change	no change	1.55	-1	inactive
DRC7 (dynein regulatory complex subunit 7)	SID152150631	no change	no change	-0.09	-0.13	inactive
KIR3DS1	SID135623961	no change	no change	2.04	0.99	inactive
COA1 (cytochrome c oxidase assembly factor 1)	SID135623946	no change	no change	1	-0.88	inactive
ARL5A (ARF like GTPase 5A)	SID152155979	no change	no change	-0.88	4.46	inactive
GPHA2 (glycoprotein hormone subunit alpha 2)	SID134319341	no change	no change	0.3	-0.61	inactive
NTSR1 (neurotensin receptor 1)	SID135621052	no change	no change	-1.2	3.08	inactive
TMEM14A (transmembrane protein 14A)	SID152150141	no change	no change	1.42	-0.18	inactive
H2BC7 (H2B clustered histone 7)	SID134315779	no change	no change	-0.18	5.08	inactive
URGCP (upregulator of cell proliferation)	SID152150473	no change	no change	-0.37	-0.59	inactive
PLK1 (polo like kinase 1)	SID56478632	no change	no change	-4.99	0.36	inactive
PPM1A (protein phosphatase, Mg2+/Mn2+ dependent 1A)	SID134314305	no change	no change	1.3	0.03	inactive
TCAF1 (TRPM8 channel associated factor 1)	SID135623997	no change	no change	-0.15	4.71	inactive
ST20-AS1 (ST20 antisense RNA 1)	SID134321979	no change	no change	1.58	-0.46	inactive
GFI1 (growth factor independent 1 transcriptional repressor)	SID152153211	no change	no change	-0.6	0.58	inactive
SAXO4 (stabilizer of axonemal microtubules 4)	SID134320604	no change	no change	-1.06	2.56	inactive
OR2G6 (olfactory receptor family 2 subfamily G member 6)	SID152149294	no change	no change	0.5	-0.64	inactive
RLIG1 (RNA 5'-phosphate and 3'-OH ligase 1)	SID135625210	no change	no change	-0.24	1.27	inactive
COX6A1 (cytochrome c oxidase subunit 6A1)	SID134316153	no change	no change	0.32	-0.17	inactive
